# Test results from PMC4133157.
# Columns and labels:
# [1] = molecular target: T1, 3XFLAG::PAT-2 (HEK293T) (C. elegans) (UniProt P34446); assay: co-IP; FLAG-tagged receptor on transfected HEK293T cells incubated with 10x concentrated conditioned medium holding the HA- and Gaussia luciferase-tagged ligand, 4 hours at 4°C; cells lysed in TNTE buffer (0.5% Triton X-100), anti-FLAG immunoprecipitation, luciferase activity of the washed immunoprecipitate, normalised to receptor level
# T1 sequence: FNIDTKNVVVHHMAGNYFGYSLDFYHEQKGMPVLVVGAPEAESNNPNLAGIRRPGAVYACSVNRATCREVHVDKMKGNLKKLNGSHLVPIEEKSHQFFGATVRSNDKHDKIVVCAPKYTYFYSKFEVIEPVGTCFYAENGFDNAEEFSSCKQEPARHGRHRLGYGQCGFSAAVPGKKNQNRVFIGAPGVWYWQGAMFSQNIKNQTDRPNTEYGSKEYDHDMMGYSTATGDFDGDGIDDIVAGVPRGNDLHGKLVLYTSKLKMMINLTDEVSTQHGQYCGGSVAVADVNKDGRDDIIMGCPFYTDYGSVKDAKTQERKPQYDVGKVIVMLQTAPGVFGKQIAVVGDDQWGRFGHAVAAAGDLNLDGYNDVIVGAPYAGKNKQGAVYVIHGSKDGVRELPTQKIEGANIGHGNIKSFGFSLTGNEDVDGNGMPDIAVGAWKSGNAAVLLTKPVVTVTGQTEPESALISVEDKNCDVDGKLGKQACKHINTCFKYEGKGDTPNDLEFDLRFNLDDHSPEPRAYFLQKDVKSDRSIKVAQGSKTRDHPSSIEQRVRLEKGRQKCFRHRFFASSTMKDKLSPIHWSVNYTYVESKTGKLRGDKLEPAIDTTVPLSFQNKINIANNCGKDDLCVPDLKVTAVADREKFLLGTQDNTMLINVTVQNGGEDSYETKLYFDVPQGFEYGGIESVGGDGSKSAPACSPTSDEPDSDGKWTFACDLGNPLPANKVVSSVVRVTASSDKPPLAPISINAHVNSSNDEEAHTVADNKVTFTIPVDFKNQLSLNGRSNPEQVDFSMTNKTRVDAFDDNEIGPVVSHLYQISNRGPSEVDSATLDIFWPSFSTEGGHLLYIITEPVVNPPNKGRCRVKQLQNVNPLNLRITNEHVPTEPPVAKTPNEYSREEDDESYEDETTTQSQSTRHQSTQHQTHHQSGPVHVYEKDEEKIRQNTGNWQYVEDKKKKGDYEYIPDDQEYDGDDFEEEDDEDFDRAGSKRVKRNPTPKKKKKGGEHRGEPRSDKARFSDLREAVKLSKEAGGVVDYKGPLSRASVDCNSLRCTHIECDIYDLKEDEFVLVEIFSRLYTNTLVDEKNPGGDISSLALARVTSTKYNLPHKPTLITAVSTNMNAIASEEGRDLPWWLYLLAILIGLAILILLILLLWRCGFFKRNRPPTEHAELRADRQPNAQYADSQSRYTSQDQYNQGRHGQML
# [2] = molecular target: T2, SAX-3::3XFLAG (HEK293T) (C. elegans) (UniProt G5EBF1); assay: as above
# T2 sequence: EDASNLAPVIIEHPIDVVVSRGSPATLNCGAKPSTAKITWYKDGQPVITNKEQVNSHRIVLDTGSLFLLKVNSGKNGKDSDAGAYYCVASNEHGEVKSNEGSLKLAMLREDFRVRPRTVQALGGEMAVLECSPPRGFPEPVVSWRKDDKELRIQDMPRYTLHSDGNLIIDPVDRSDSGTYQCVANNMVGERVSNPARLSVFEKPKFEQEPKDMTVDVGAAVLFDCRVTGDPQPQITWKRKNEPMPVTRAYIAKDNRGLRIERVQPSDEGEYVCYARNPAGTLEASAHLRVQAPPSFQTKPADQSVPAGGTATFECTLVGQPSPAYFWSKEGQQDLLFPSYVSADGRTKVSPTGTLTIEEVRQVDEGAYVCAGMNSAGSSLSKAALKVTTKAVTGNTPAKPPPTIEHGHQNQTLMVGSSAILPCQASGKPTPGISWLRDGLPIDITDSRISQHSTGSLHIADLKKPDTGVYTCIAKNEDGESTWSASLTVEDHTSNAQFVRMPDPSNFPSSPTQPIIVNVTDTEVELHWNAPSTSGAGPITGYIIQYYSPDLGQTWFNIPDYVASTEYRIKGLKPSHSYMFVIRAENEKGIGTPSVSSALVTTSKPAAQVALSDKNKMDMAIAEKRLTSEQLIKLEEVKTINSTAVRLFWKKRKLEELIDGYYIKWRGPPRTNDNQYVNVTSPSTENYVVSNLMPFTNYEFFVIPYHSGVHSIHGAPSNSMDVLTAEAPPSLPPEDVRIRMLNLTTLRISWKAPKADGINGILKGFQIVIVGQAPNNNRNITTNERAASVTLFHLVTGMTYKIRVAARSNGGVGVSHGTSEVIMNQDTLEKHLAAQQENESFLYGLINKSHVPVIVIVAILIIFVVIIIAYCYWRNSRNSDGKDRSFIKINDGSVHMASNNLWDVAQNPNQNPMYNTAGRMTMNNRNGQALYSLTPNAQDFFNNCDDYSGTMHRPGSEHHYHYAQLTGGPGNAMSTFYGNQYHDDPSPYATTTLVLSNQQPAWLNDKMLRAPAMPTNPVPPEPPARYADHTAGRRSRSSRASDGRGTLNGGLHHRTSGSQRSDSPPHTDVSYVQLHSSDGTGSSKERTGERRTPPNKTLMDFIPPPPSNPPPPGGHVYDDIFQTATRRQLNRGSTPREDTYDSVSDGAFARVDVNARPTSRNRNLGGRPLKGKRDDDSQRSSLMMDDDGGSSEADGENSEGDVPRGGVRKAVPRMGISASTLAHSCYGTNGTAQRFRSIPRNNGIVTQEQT
substance,measurement,setting,value
HA::MADD-4B::Gaussia luciferase (C. elegans) (ligand),binding,[1],no binding
same,binding,[2],no binding

# Results are given in words; binding and its absence hold for the method and conditions named. In cells and extracts the contact can be indirect. Where a sequence is shown, tags or fusion partners need not be part of it.
